These results are taken from paper PMC8005662.

Chains of the proteins cited; added tags and fusions are not shown.
UniProt P16220: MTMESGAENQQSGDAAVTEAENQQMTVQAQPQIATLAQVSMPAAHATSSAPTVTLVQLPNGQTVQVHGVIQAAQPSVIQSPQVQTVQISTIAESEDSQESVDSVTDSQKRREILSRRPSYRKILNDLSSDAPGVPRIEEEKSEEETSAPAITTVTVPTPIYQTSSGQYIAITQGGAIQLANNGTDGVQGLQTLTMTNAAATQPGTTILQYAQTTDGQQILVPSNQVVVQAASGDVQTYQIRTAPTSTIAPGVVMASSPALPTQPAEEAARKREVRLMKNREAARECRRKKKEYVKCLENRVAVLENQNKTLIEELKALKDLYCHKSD

For the assay, the target named is cAMP response element-binding protein (CREB) (human (endogenous in HUVECs)) (UniProt P16220). Nature of the assay: co-IP; endogenous IP from HUVEC whole-cell lysate; 30 ul lysate with primary antibodies and 50 ul protein A/G Dynabeads, 4 °C, 12 h; input, IgG and IP fractions analysed by western blotting. A general note: In western blotting, separated proteins are transferred to a membrane and probed.

These are yes or no findings as the source states them, for the method shown. In cells and extracts the contact can be indirect. Some binding calls cover weakened binding; strength is not graded here.

B1: lysine methyltransferase 5A (KMT5A) (protein, UniProt Q9NQR1 1-393)
chain: MGEGGAAAALVAAAAAAAAAAAAVVAGQRRRRLGRRARCHGPGRAAGGKMSKPCAVEAAAAAVAATAPGPEMVERRGPGRPRTDGENVFTGQSKIYSYMSPNKCSGMRFPLQEENSVTHHEVKCQGKPLAGIYRKREEKRNAGNAVRSAMKSEEQKIKDARKGPLVPFPNQKSEAAEPPKTPPSSCDSTNAAIAKQALKKPIKGKQAPRKKAQGKTQQNRKLTDFYPVRRSSRKSKAELQSEERKRIDELIESGKEEGMKIDLIDGKGRGVIATKQFSRGDFVVEYHGDLIEITDAKKREALYAQDPSTGCYMYYFQYLSKTYCVDATRETNRLGRLINHSKCGNCQTKLHDIDGVPHLILIASRDIAAGEELLYDYGDRSKASIEAHPWLKH
Take B1: the binding result is “binds”.
